The values that follow come from the supplement of paper PMC12067093, “Discovery and optimisation of a covalent ligand for TRIM25 and its application to targeted protein ubiquitination” (Chemical Science, 2025).

Compound in this assay: Cc1cc(ccc1-c1ccccc1)C(=O)N1CCCN(CC1)C(=O)CCl [compound 10]
The assay can be described thus: probe-labelled cysteine peptide fold change vs DMSO (competition) (log2 fold change); higher = less target engagement (more negative = stronger competition). Conditions: THP-1, incubation time: 4 h.

Some of the results follow.
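Also: competitive profiling in live THP-1 cells: cysteine peptides tagged with an iodoacetamide desthiobiotin (IA-DTB) probe, intensity after compound treatment relative to DMSO-treated cells.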

Consider “GLS_O94925_266_FSPDLWGVSVCTVDGQR (UniProt O94925)”, for which the “probe-labelled cysteine peptide fold change” value is, setting by setting: (10 µM) 0.016; (50 µM) 0.199.

On to “GOLGA4_Q13439_1729_NVAAYTEQEEADSQGCVQK (UniProt Q13439)”, for which the “probe-labelled cysteine peptide fold change” value is, setting by setting: (10 µM) -0.0132; (50 µM) 0.0434.

For “GOT2_P00505_272+274_HFIEQGINVCLCQSYAK (UniProt P00505)”, the “probe-labelled cysteine peptide fold change” value reads like this: (10 µM) 0.416; (50 µM) -0.495.

As for “GMPS_P49915_213_NFLYDIAGCSGTFTVQNR (UniProt P49915)”, the “probe-labelled cysteine peptide fold change” value runs as follows: (10 µM) 0.0686; (50 µM) 0.115.

With “GNB2_P62879_149_ELPGHTGYLSCCR (UniProt P62879)”, the “probe-labelled cysteine peptide fold change” value was -0.118 (10 µM) and -0.265 (50 µM).

For the target “GLUL_P15104_99_LVLCEVFK (UniProt P15104)”, the “probe-labelled cysteine peptide fold change” value stood at 0.0492 (10 µM) and 0.198 (50 µM).

On to GLO1_Q04760_61_CDFPIMK (UniProt Q04760), for which the “probe-labelled cysteine peptide fold change” value (10 µM) is -0.0342 and the “probe-labelled cysteine peptide fold change” value (50 µM) was found to be 0.0211.

On to “GOLGA4_Q13439_1269_TCTVSELEAQLR (UniProt Q13439)”, for which the “probe-labelled cysteine peptide fold change” value was -0.0958 (10 µM) and -0.093 (50 µM).

Consider “GOLPH3_Q9H4A6_280_QLLDLDPEVECLK (UniProt Q9H4A6)”, for which the “probe-labelled cysteine peptide fold change” value was -0.195 (10 µM) and 0.0853 (50 µM).

For “GNL3L_Q9NVN8_278_ACSVGAVPGITK (UniProt Q9NVN8)”, the “probe-labelled cysteine peptide fold change” value reads like this: (10 µM) -0.00424; (50 µM) -0.69.

On to “GOLGA2_Q08379_984_ERPGLGSNPCIPFFYR (UniProt Q08379)”, for which the “probe-labelled cysteine peptide fold change” value is, setting by setting: (10 µM) -0.149; (50 µM) -0.0471.

With “GPN1_Q9HCN4_21_HPVCLLVLGMAGSGK (UniProt Q9HCN4)”, the “probe-labelled cysteine peptide fold change” value is, setting by setting: (10 µM) 0.0236; (50 µM) -0.0868.

With “GLG1_Q92896_984_LSSDCEDQIR (UniProt Q92896)”, the “probe-labelled cysteine peptide fold change” value is -0.26 (10 µM) and 0.133 (50 µM).

Regarding “GOSR2_O14653_18_QVHEIQSCMGR (UniProt O14653)”, the “probe-labelled cysteine peptide fold change” value was 0.169 (10 µM) and -0.00208 (50 µM).

Take “GNE_Q9Y223_303_HVPFDQFIQLVAHAGCMIGNSSCGVR (UniProt Q9Y223)”: the “probe-labelled cysteine peptide fold change” value (10 µM) was -0.0786 and the “probe-labelled cysteine peptide fold change” value (50 µM) is 0.0743.

GLRX_P35754_8_AQEFVNCK (UniProt P35754): the “probe-labelled cysteine peptide fold change” value by setting is: (10 µM) -0.0439; (50 µM) -0.327.

On to “GLOD4_Q9HC38_171_SLNYWCNLLGMK (UniProt Q9HC38)”, for which the “probe-labelled cysteine peptide fold change” value reads like this: (10 µM) 0.0955; (50 µM) 0.12.

Consider “GOT2_P00505_212_IPEQSVLLLHACAHNPTGVDPRPEQWK (UniProt P00505)”, for which the “probe-labelled cysteine peptide fold change” value runs as follows: (10 µM) 0.243; (50 µM) 0.484.

“GNL3_Q9BVP2_280_QEQMCNVGVSMGLTR (UniProt Q9BVP2)”: the “probe-labelled cysteine peptide fold change” value reads like this: (10 µM) 0.183; (50 µM) -0.104.

Take “GNB1_P62873_294_LLLAGYDDFNCNVWDALK (UniProt P62873)”: the “probe-labelled cysteine peptide fold change” value by setting is: (10 µM) 0.0699; (50 µM) 0.17.

Consider “GNPAT_O15228_668_LEEMLGCK (UniProt O15228)”, for which the “probe-labelled cysteine peptide fold change” value (10 µM) was -0.206 and the “probe-labelled cysteine peptide fold change” value (50 µM) is -0.0115.

Regarding “GMPS_P49915_137_SVREDGVFNISVDNTCSLFR (UniProt P49915)”, the “probe-labelled cysteine peptide fold change” value is -0.127 (10 µM) and -0.0644 (50 µM).

For the target “GOLGA4_Q13439_853_DVCTELDAHK (UniProt Q13439)”, the “probe-labelled cysteine peptide fold change” value (10 µM) amounted to 0.108 and the “probe-labelled cysteine peptide fold change” value (50 µM) came out at 0.148.

For “GNB1_P62873_25_KACADATLSQITNNIDPVGR (UniProt P62873)”, the “probe-labelled cysteine peptide fold change” value was -0.0343 (10 µM) and -0.659 (50 µM).

Turning to “GMPPA_Q96IJ6_154_TQSLNYGCIVENPQTHEVLHYVEK (UniProt Q96IJ6)”, the “probe-labelled cysteine peptide fold change” value (10 µM) came out at 0.0262 and the “probe-labelled cysteine peptide fold change” value (50 µM) amounted to 0.00148.

“GNB1_P62873_271_ADQELMTYSHDNIICGITSVSFSKSGR (UniProt P62873)”: the “probe-labelled cysteine peptide fold change” value reads like this: (10 µM) 0.19; (50 µM) -0.0474.

As for “GPKOW_Q92917_394_MIIEDVLSPDTCVCR (UniProt Q92917)”, the “probe-labelled cysteine peptide fold change” value is -0.0728 (10 µM) and -0.0778 (50 µM).

For “GNL3_Q9BVP2_131_LYCQELK (UniProt Q9BVP2)”, the “probe-labelled cysteine peptide fold change” value is -0.255 (10 µM) and 0.148 (50 µM).

Turning to “GNPTG_Q9UJJ9_245_TPEENEPTQLEGGPDSLGFETLENCR (UniProt Q9UJJ9)”, the “probe-labelled cysteine peptide fold change” value (10 µM) was -0.282 and the “probe-labelled cysteine peptide fold change” value (50 µM) was determined as 0.185.

In the case of “GNAI2_P04899_112_QLFALSCTAEEQGVLPDDLSGVIRR (UniProt P04899)”, the “probe-labelled cysteine peptide fold change” value by setting is: (10 µM) -0.166; (50 µM) -0.29.

For “GNL2_Q13823_362_IFLIDCPGVVYPSEDSETDIVLK (UniProt Q13823)”, the “probe-labelled cysteine peptide fold change” value (10 µM) turned out to be 0.17 and the “probe-labelled cysteine peptide fold change” value (50 µM) was 0.122.

As to “GNL3_Q9BVP2_156_KVIEASDVVLEVLDARDPLGCR (UniProt Q9BVP2)”, the “probe-labelled cysteine peptide fold change” value is -0.0741 (10 µM) and -0.644 (50 µM).

Consider “GOLGB1_Q14789_1964_CVSELEEEK (UniProt Q14789)”, for which the “probe-labelled cysteine peptide fold change” value (10 µM) was 0.0765 and the “probe-labelled cysteine peptide fold change” value (50 µM) is 0.0918.

Take “GPHN_Q9NQX3_284_LSTASCPTPK (UniProt Q9NQX3)”: the “probe-labelled cysteine peptide fold change” value was -0.406 (10 µM) and -0.288 (50 µM).

For the target “GMIP_Q9P107_521_CRECEAFMVSGTECEECFLTCHK (UniProt Q9P107)”, the “probe-labelled cysteine peptide fold change” value (10 µM) is -0.215 and the “probe-labelled cysteine peptide fold change” value (50 µM) is -0.0164.

On to “GNS_P15586_140_SMCGYQTFFAGK (UniProt P15586)”, for which the “probe-labelled cysteine peptide fold change” value was -0.00337 (10 µM) and -0.0426 (50 µM).

As for “GNE_Q9Y223_296_HVPFDQFIQLVAHAGCMIGNSSCGVR (UniProt Q9Y223)”, the “probe-labelled cysteine peptide fold change” value is, setting by setting: (10 µM) -0.0525; (50 µM) 0.0652.

In the case of “GNL1_P36915_517_LSLCFHPPGYSEQK (UniProt P36915)”, the “probe-labelled cysteine peptide fold change” value (10 µM) worked out at 0.117 and the “probe-labelled cysteine peptide fold change” value (50 µM) was -0.0318.

In the case of “GPHN_Q9NQX3_676_CILTWHHQEPLPWAQSTGNQMSSR (UniProt Q9NQX3)”, the “probe-labelled cysteine peptide fold change” value (10 µM) is 0.177 and the “probe-labelled cysteine peptide fold change” value (50 µM) was -0.06.
